PubChem BioAssay AID652243 | Drosophila RNAi Screening Center | 2013
Assay: 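Fly genes required for human androgen receptor driven transcription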 (primary screen). Cell system: Drosophila S2R+ cells. Reagent: long dsRNA against Drosophila genes. Time to read-out: 72 h (48 h, then 24 h hormone). Treatment: synthetic androgen R1881 at 10 nM for 24 h. Measurement: 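Per-well raw luminescence of the androgen-driven firefly reporter and of the Renilla control, two replicates each, without normalisation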. Direction: firefly reporter light: higher = more light from androgen-responsive reporter; Renilla control light: higher = more constitutive control signal (cell number, transfection). Active means: 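Hit when the log firefly-to-Renilla ratio dropped or increased by a fixed fold versus the mean of GFP or LacZ controls across duplicate plates; lowering cut given as 1.5 and as 3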. Calls: active = hit: reporter lowered or raised; inactive = no hit.
In all, the deposit lists about 24,000 reagents; below is an unselected part of those that have a named target and a result. Of all reagents, 246 (1%) were called active. 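Plates not normalised; calls are printed but the firefly/Renilla ratio behind them is not deposited; fold cut for lowering reported inconsistently.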 Raw values are not corrected between plates. Names joined by + are all predicted targets of the reagent. Not stated in the record: the amount of reagent.

CG32137 [DRSC10271] gave firefly reporter light, replicate 1 = 1.64e5; firefly reporter light, replicate 2 = 1.23e5; Renilla control light, replicate 1 = 1.97e6; Renilla control light, replicate 2 = 1.61e6; inactive. Depletion of CG7252 [DRSC10789] came out at: firefly reporter light, replicate 1 = 1.00e6; firefly reporter light, replicate 2 = 5.25e5; Renilla control light, replicate 1 = 1.22e6; Renilla control light, replicate 2 = 7.83e5; inactive. Knock-down of CG7252 [DRSC21492] came out at: firefly reporter light, replicate 1 = 1.05e6; firefly reporter light, replicate 2 = 9.06e5; Renilla control light, replicate 1 = 5.30e5; Renilla control light, replicate 2 = 4.02e5; inactive. CG8301 [DRSC16405] scored firefly reporter light, replicate 1 = 1.33e5; firefly reporter light, replicate 2 = 2.41e5; Renilla control light, replicate 1 = 2.71e6; Renilla control light, replicate 2 = 3.07e6; inactive. With knock-down of CG8301 [DRSC28170], the record shows firefly reporter light, replicate 1 = 5.27e5; firefly reporter light, replicate 2 = 4.88e5; Renilla control light, replicate 1 = 1.99e6; Renilla control light, replicate 2 = 1.74e6; inactive. CG7632 [DRSC11842] scored firefly reporter light, replicate 1 = 1.89e5; firefly reporter light, replicate 2 = 2.35e5; Renilla control light, replicate 1 = 1.93e6; Renilla control light, replicate 2 = 2.51e6; inactive.

For CG34194 [DRSC05666], the entry reads firefly reporter light, replicate 1 = 1.78e5; firefly reporter light, replicate 2 = 2.10e5; Renilla control light, replicate 1 = 2.86e5; Renilla control light, replicate 2 = 3.34e5; inactive. Knock-down of CG4377 [DRSC04467] gave: firefly reporter light, replicate 1 = 1.73e6; firefly reporter light, replicate 2 = 4.52e5; Renilla control light, replicate 1 = 2.31e6; Renilla control light, replicate 2 = 1.04e6; inactive. CG4377 [DRSC28406] gave firefly reporter light, replicate 1 = 4.93e5; firefly reporter light, replicate 2 = 5.53e5; Renilla control light, replicate 1 = 7.91e5; Renilla control light, replicate 2 = 1.45e6; inactive. Against eEFSec [DRSC04571], the values are firefly reporter light, replicate 1 = 2.10e5; firefly reporter light, replicate 2 = 2.06e5; Renilla control light, replicate 1 = 1.68e6; Renilla control light, replicate 2 = 1.28e6; inactive. Srp68 [DRSC10475] showed firefly reporter light, replicate 1 = 5.17e5; firefly reporter light, replicate 2 = 6.25e5; Renilla control light, replicate 1 = 9.50e5; Renilla control light, replicate 2 = 1.21e6; inactive. Depletion of Srp68 [DRSC28655] resulted in: firefly reporter light, replicate 1 = 6.42e5; firefly reporter light, replicate 2 = 8.41e5; Renilla control light, replicate 1 = 1.45e6; Renilla control light, replicate 2 = 1.72e6; inactive.

Depletion of Takl1 [DRSC13443] resulted in: firefly reporter light, replicate 1 = 1.87e5; firefly reporter light, replicate 2 = 43922; Renilla control light, replicate 1 = 2.62e5; Renilla control light, replicate 2 = 2.09e5; inactive. With knock-down of Takl1 [DRSC28251] the results were firefly reporter light, replicate 1 = 5.85e5; firefly reporter light, replicate 2 = 6.97e5; Renilla control light, replicate 1 = 9.40e5; Renilla control light, replicate 2 = 1.20e6; inactive. Against Polr3E [DRSC11880] the deposit lists firefly reporter light, replicate 1 = 1.82e5; firefly reporter light, replicate 2 = 1.66e5; Renilla control light, replicate 1 = 2.50e6; Renilla control light, replicate 2 = 2.05e6; inactive. For Polr3E [DRSC23914] the deposit lists firefly reporter light, replicate 1 = 1.07e6; firefly reporter light, replicate 2 = 6.84e5; Renilla control light, replicate 1 = 1.18e6; Renilla control light, replicate 2 = 5.63e5; inactive. With knock-down of Atg8b [DRSC14501], the record shows firefly reporter light, replicate 1 = 1.95e5; firefly reporter light, replicate 2 = 2.01e5; Renilla control light, replicate 1 = 1.40e6; Renilla control light, replicate 2 = 1.26e6; inactive. For Atg8b [DRSC24428], the values are firefly reporter light, replicate 1 = 8.17e5; firefly reporter light, replicate 2 = 8.18e5; Renilla control light, replicate 1 = 1.32e6; Renilla control light, replicate 2 = 1.41e6; inactive.

Ube4A [DRSC02004] gave firefly reporter light, replicate 1 = 1.14e6; firefly reporter light, replicate 2 = 1.49e6; Renilla control light, replicate 1 = 2.78e6; Renilla control light, replicate 2 = 2.47e6; inactive. Silencing of His2Av [DRSC16702] came out at: firefly reporter light, replicate 1 = 1.31e5; firefly reporter light, replicate 2 = 1.31e5; Renilla control light, replicate 1 = 7.79e5; Renilla control light, replicate 2 = 9.52e5; inactive. After knock-down of Trxr1 [DRSC18668] the results were firefly reporter light, replicate 1 = 1.29e5; firefly reporter light, replicate 2 = 53395; Renilla control light, replicate 1 = 1.02e6; Renilla control light, replicate 2 = 7.43e5; inactive. Silencing of Trxr1 [DRSC22293] came out at: firefly reporter light, replicate 1 = 6.76e5; firefly reporter light, replicate 2 = 5.97e5; Renilla control light, replicate 1 = 2.10e6; Renilla control light, replicate 2 = 2.32e6; inactive. Silencing of Trxr1 [DRSC25749] gave: firefly reporter light, replicate 1 = 2.94e5; firefly reporter light, replicate 2 = 3.66e5; Renilla control light, replicate 1 = 6.47e5; Renilla control light, replicate 2 = 4.13e5; inactive. Against snRNA:U1:95Cc + CG43285 (retired record) [DRSC13640], the entry reads firefly reporter light, replicate 1 = 38224; firefly reporter light, replicate 2 = 17039; Renilla control light, replicate 1 = 67810; Renilla control light, replicate 2 = 1.24e5; inactive.

After knock-down of Art1 [DRSC16063], the screen gave firefly reporter light, replicate 1 = 78663; firefly reporter light, replicate 2 = 82699; Renilla control light, replicate 1 = 3.16e5; Renilla control light, replicate 2 = 4.11e5; inactive. l(3)72Dp [DRSC10477] gave firefly reporter light, replicate 1 = 2.31e5; firefly reporter light, replicate 2 = 2.41e5; Renilla control light, replicate 1 = 2.08e6; Renilla control light, replicate 2 = 1.80e6; inactive. Syp [DRSC13444] scored firefly reporter light, replicate 1 = 1.90e5; firefly reporter light, replicate 2 = 72587; Renilla control light, replicate 1 = 1.80e5; Renilla control light, replicate 2 = 1.91e5; inactive. Depletion of Syp [DRSC15286] came out at: firefly reporter light, replicate 1 = 83156; firefly reporter light, replicate 2 = 92048; Renilla control light, replicate 1 = 6.11e5; Renilla control light, replicate 2 = 6.31e5; inactive. Depletion of Syp [DRSC29126] gave: firefly reporter light, replicate 1 = 9.15e5; firefly reporter light, replicate 2 = 8.26e5; Renilla control light, replicate 1 = 7.95e5; Renilla control light, replicate 2 = 8.13e5; inactive.

As entered above:
CG32137 [DRSC10271], Renilla control light, replicate 2 → 1.61e6
Value of Takl1 [DRSC13443] under “firefly reporter light, replicate 1”: 1.87e5
For “firefly reporter light, replicate 1”, Atg8b [DRSC14501] has 1.95e5
Value for snRNA:U1:95Cc + CG43285 (retired record) [DRSC13640] under “firefly reporter light, replicate 1”: 38224
